Two substances from publication PMC7333391 can be followed below.

By UniProt entry, the sequences of proteins in these tests, tags left out. Where a name states a change or a piece, a line headed by the entry shows the natural chain unless it says otherwise. Chains listed by the source or under a name are the forms on record and can include a tag or linker. Residues count along the entry.
UniProt P68104: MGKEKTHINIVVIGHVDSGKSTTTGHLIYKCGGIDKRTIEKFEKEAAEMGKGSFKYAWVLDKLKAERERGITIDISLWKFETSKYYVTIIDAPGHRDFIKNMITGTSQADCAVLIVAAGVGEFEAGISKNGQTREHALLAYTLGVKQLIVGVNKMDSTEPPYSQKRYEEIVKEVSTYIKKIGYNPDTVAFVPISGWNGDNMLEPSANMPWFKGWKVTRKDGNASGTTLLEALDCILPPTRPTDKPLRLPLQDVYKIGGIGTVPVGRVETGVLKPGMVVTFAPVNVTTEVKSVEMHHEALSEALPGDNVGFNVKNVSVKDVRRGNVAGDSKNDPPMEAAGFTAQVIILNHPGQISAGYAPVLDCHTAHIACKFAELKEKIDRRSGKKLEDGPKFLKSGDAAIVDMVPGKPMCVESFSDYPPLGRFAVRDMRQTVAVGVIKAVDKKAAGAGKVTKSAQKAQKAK
Myc-tagged eEF1A1-I (residues 1-240; pcDNA3.1-eEF1A1-I): residues 1-240 of P68104
UniProt P80200: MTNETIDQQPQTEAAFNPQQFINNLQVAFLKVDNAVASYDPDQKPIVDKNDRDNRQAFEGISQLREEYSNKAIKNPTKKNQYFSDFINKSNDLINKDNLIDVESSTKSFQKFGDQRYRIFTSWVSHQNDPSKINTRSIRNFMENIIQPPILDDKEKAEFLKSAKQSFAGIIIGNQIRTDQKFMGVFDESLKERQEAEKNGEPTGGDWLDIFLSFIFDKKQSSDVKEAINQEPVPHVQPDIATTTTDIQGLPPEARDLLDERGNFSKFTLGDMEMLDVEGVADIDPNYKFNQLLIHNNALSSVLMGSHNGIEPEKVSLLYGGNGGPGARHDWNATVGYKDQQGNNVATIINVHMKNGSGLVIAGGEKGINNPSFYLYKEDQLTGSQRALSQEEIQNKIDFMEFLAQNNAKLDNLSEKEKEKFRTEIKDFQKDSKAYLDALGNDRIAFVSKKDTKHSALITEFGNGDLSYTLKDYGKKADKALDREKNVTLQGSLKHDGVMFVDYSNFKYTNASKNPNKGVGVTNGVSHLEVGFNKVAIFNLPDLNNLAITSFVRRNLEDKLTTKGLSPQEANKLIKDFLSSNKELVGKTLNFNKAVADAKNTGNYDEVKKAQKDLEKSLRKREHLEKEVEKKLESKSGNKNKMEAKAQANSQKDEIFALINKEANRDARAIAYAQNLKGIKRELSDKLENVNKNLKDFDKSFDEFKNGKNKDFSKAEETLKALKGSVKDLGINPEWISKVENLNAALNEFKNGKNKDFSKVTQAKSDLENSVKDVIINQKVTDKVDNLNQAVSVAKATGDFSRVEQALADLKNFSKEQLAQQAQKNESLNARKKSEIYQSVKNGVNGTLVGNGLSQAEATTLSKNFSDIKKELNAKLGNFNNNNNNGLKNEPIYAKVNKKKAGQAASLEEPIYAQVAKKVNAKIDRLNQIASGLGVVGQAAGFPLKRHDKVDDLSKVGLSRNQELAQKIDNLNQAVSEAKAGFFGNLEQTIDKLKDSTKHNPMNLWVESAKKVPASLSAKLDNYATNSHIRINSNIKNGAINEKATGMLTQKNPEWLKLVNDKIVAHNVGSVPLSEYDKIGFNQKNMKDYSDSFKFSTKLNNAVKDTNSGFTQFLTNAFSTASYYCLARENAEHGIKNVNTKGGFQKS
UniProt Q05655: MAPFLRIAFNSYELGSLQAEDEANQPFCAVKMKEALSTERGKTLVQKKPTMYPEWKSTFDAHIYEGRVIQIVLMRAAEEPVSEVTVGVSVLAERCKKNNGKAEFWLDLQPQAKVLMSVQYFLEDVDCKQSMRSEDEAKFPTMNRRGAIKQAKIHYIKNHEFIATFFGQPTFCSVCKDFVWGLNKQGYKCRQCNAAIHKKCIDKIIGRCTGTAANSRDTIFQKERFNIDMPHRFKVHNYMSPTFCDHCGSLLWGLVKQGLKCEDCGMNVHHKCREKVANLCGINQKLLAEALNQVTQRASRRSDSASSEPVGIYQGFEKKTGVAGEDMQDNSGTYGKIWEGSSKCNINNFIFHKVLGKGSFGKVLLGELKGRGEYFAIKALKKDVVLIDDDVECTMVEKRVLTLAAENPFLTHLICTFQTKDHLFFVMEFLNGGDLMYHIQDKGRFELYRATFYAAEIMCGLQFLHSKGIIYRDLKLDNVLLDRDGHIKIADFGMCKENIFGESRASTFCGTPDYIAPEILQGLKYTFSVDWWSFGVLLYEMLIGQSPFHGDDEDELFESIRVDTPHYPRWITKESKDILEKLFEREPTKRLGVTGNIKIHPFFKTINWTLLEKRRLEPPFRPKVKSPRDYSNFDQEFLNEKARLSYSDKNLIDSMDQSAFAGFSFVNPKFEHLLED

No constants are given. Whether binding was seen depends on the method and setting. Binding seen in cells or lysates may run through a third protein. Some entries that bind do so weakly or less than the wild type.

For experiment [1], the target named is Myc-tagged eEF1A1-I (residues 1-240; pcDNA3.1-eEF1A1-I) (UniProt P68104). Nature of the experiment: co-IP; lysates of AGS cells (untransfected or overexpressing Myc-tagged eEF1A1 or its segments) infected with H. pylori NCTC11637 or NCTC11637ΔcagA; primary antibody and protein A/G Plus-Agarose overnight at 4 °C; western blot with anti-CagA and anti-Myc or anti-eEF1A1. In general terms: A western blot detects proteins with antibodies after separation by electrophoresis.

The target of experiment [2] is Myc-tagged eukaryotic translation elongation factor 1-alpha 1 (pcDNA3.1-Myc-eEF1A1) (UniProt P68104). The experiment is described as above.
For experiment [3], the target named is eukaryotic translation elongation factor 1-alpha 1, endogenous in AGS cells (human (endogenous in AGS)) (UniProt P68104). The description is as above.
For experiment [4] the target is unchanged. Nature of the experiment: co-IP; precipitates compared with and without CagA; cells and precipitating antibody not told for this experiment.

On to “Cytotoxin-associated gene A protein (CagA) of H. pylori NCTC11637, delivered by infection (from UniProt P80200 1-1147)”, for which the binding result in experiment [1], in experiment [2] and in experiment [3] was “binds” throughout.
For the substance “protein kinase Cδ (PKCδ) (from UniProt Q05655 1-676) (enzyme)”, the binding entry in experiment [4] is reported as “binds”.
